Assay results: PubChem BioAssay AID588590 (National Center for Advancing Translational Sciences (NCATS), 2011)
Where “and” joins values, the source holds several entries; their conditions need not be identical. Equal values may be shown once. Screen size: about 390,000 compounds; about 4,000 (1%) were called active. The inconclusive results got no clear call from the source; some entries with a clear call stand among them for comparison. Calls come from the whole dose curve; as a rule, active = well fitted inhibition curve with a large enough effect; inconclusive = small, poorly fitted or top-dose-only effect, or another doubt; inactive = no such curve, though single readings can be large or run the other way. A potency beside an inconclusive call is a rough fit, not a confirmed value.

Chains of the proteins cited; added tags and fusions are not shown. Lines headed by an entry give the natural chain unless they say otherwise; changes in a name come on top.
UniProt Q9UNA4: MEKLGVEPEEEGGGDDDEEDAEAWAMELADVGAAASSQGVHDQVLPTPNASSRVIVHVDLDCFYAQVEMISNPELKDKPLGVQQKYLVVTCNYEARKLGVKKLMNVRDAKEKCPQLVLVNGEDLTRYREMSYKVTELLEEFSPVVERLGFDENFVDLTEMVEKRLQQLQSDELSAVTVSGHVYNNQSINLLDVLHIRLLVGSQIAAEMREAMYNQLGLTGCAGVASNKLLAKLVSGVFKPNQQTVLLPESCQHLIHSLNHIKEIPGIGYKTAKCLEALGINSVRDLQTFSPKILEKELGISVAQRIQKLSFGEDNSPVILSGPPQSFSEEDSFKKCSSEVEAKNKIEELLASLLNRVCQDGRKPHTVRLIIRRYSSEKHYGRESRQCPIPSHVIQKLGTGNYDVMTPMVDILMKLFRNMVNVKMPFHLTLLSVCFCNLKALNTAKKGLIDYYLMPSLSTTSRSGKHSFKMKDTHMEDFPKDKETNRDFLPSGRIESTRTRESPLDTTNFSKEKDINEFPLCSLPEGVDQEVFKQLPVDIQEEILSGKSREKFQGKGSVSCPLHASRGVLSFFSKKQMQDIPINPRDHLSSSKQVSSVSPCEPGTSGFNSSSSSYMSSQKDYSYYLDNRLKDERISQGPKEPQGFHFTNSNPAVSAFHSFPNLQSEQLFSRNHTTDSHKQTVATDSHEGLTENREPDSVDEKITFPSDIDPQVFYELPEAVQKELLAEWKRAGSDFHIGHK

What follows are molecules tested against DNA polymerase iota (Homo sapiens) (UniProt Q9UNA4) (assay: qHTS for Inhibitors of Polymerase Iota). Conditions: Pol iota fluorescent replication assay, 10 min; series mostly up to 115 µM; activity, negative = inhibition: at the top concentration.
Method in brief: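 Pol iota at 10 nM preincubated 15 min with compounds at room temperature; reaction started with fluorescent substrate, 50 nM final. Fluorescence read kinetically at 0 and 10 min; buffer-only wells as negative control.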
Potency is the fitted concentration of half-maximal effect.

Structure (SMILES)	Potency	activity, negative = inhibition
c1ccc2c(N3CCNCC3)cccc2c1	inconclusive: 25.1 µM [inhibitor, partial curve]	
CCCCCCN=C(CC)c1c(O)n(CCCC)c(=O)[nH]c1=O	inconclusive: 25.1 µM [inhibitor, single point]	
O=C(CCN1CCN(CCO)CC1)N1c2ccccc2Sc2ccc(C(F)(F)F)cc21	inconclusive: 20 µM [inhibitor, partial curve, poor fit]	
Cc1cccc(N2C(=O)/C(=C/N3CCN(C(=O)c4ccco4)CC3)C(=O)NC2=S)c1		inactive: 2.63%
COc1ccc(CC2C(=O)N(C)C(=O)N(C)C2=O)c(OC)c1	inconclusive: 22.4 µM [inhibitor, partial curve]	
C=CCOc1ccc(CC2C(=O)N(C)C(=O)N(C)C2=O)cc1	inconclusive: 56.2 µM [inhibitor, partial curve, poor fit]	
Cc1cc(O)c2c(c1)OC(C)(C)C1=C2CC(C)CC1 (stereo not given)	inconclusive: 89.1 µM [inhibitor, single point]	
O=C1NC(=O)C(=Cc2ccco2)C(=O)N1	inconclusive: 4.47 µM [inhibitor, full curve, poor fit]	
O=C1NC(=O)C(Nc2ccc(Cl)c(Cl)c2)C(=O)N1	inconclusive: 3.55 µM [inhibitor, full curve, poor fit]	
Cc1cccc(NP2(=O)NCCCN2)c1	inconclusive: 89.1 µM [inhibitor, single point]	
COc1ccc(CN2CCNCC2)c(OC)c1OC	inactive and inconclusive: 25.1 µM [inhibitor, single point]	
O=c1[nH]c(=O)n(Cc2ccco2)c(O)c1C=NCc1ccc2c(c1)OCO2	inconclusive: 14.1 µM [inhibitor, partial curve]	
C[C@@H](C1CC[C@@]2(O)C3=CC(=O)[C@@H]4C[C@@H](O)[C@@H](O)C[C@]4(C)[C@H]3CC[C@]12C)[C@H](O)CCC(C)(C)O (stereo not given in full)		inactive: 27.4%
O=C(O)CCn1cc(C=C2C(=O)NC(=O)NC2=O)c(-c2cc3ccccc3oc2=O)n1	inconclusive: 6.31 µM [inhibitor, single point]	
COc1ccc(N=Cc2c(O)n(CC3CCCO3)c(=O)[nH]c2=O)cc1 (stereo not given)	inconclusive: 70.8 µM [inhibitor, partial curve, poor fit]	
COCCCn1c(N)c(C(=O)Nc2ccccc2)c2nc3ccccc3nc21	active: 14.1 µM	
COC(=O)C1=Nc2ccccc2/C1=C\c1c(O)n(-c2ccc(OC)cc2)c(=O)[nH]c1=O	inconclusive: 35.5 µM [inhibitor, single point]	
O=C(Cc1ccc(S(=O)(=O)N2CCCC2)s1)N1CCN(c2ccc(F)cc2)CC1	inconclusive: 56.2 µM [inhibitor, partial curve, poor fit]	
Cc1ccc(-n2c(C)cc(/C=C3/C(=O)NC(=O)N(C)C3=O)c2C)cc1	inconclusive: 11.2 µM [inhibitor, partial curve, poor fit]	
C=CCN1C(=O)NC(=O)/C(=C/c2ccoc2)C1=O	active: 20 µM	

Shown in markdown: 2 of the compounds above.

| Structure (SMILES) | Potency | activity, negative = inhibition |
| --- | --- | --- |
| C=CCOc1ccc(CC2C(=O)N(C)C(=O)N(C)C2=O)cc1 | inconclusive: 56.2 µM [inhibitor, partial curve, poor fit] |  |
| C[C@@H](C1CC[C@@]2(O)C3=CC(=O)[C@@H]4C[C@@H](O)[C@@H](O)C[C@]4(C)[C@H]3CC[C@]12C)[C@H](O)CCC(C)(C)O (stereo not given in full) |  | inactive: 27.4% |

Continuation:

Structure (SMILES)	Potency	activity, negative = inhibition
CCN(CC)P(=S)(c1c(C)nc2ccccn12)c1c(C)nc2ccccn12	inconclusive: 25.1 µM [inhibitor, partial curve, poor fit]	
CC(C)n1c(O)c(C2c3cc(Cl)ccc3Oc3[nH]c(=O)n(C(C)C)c(=O)c32)c(=O)[nH]c1=O (stereo not given)	active: 15.8 µM	
Cc1ccsc1/C=N/NC(=O)Cc1cc(=O)[nH][nH]1	inconclusive: 22.4 µM [inhibitor, single point]	
O=C1NC(=O)N(CCC2=CCCCC2)C(=O)/C1=C/c1ccc(O)cc1		inactive: -19.7%
Cc1cc(C=C2C(=O)NC(=O)NC2=O)c(C)n1-c1ccncc1	inconclusive: 25.1 µM [inhibitor, partial curve, poor fit]	
O=C1NC(=O)C(=Cc2cc(Cl)ccc2OCc2ccc(C(=O)O)cc2)C(=O)N1	inconclusive: 28.2 µM [inhibitor, full curve]	
O=C1CCCN1c1ccc(S(=O)(=O)O)cc1 (tested in a mixture with another compound)	inconclusive: 79.4 µM [inhibitor, partial curve]	
NCc1cc(=O)[nH]o1	inconclusive: 31.6 µM [inhibitor, full curve, poor fit]	
O=C(c1ccc(CS(=O)(=O)c2ccccc2)o1)N1CCC2(CC1)OCCO2	inconclusive: 14.1 µM [inhibitor, partial curve, poor fit]	
O=C1NC(=S)NC(=O)C1=Cc1cccn1-c1ccc(O)cc1	active: 2.24 µM	
O=C1c2cccc(O)c2C(=O)c2c(O)cc(CO)cc21	inconclusive: 20 µM [inhibitor, partial curve]	
CCCNS(=O)(=O)c1ccc(OCC(=O)N2CCN(Cc3ccc4c(c3)OCO4)CC2)c(C)c1		inactive: -6.39%
Cc1cc(Cc2c(O)[nH]c(=S)[nH]c2=O)ccc1OC(C)C	inconclusive: 39.8 µM [inhibitor, single point]	
COc1cc2c(cc1OC)-c1c(OC)c(OC)cc3c1[C@H](C2)[N+](C)(C)CC3	inconclusive: 89.1 µM [inhibitor, partial curve, poor fit]	
C#CCOCCOCCOCCNc1nc(N2CCN(C(=O)CCCCCCCCCCNC(=O)[C@H]([C@@H](C)CC)n3cc(CCCCN=C(N)N)nn3)CC2)nc(N2CCN(C(=O)CCCCCCCCCCNC(=O)[C@H](CO)n3cc(CCCCCN)nn3)CC2)n1	inconclusive: 17.8 µM [inhibitor, partial curve]	
Cc1ccc(-n2c(/C=C\c3ccc(F)c(F)c3)nc3ccccc3c2=O)c(C)c1		inactive: 20.4%
O=Cc1cn(Cc2ccc(Br)cc2)c2ccccc12		inactive: 20%
COC(=O)C1=C(c2ccc3ccccc3c2)C[C@@H]2CC[C@H]1N2C(=O)NCC1CC1		inactive: 22.2%
C(#CCN1CCOCC1)COCC#Cc1ccccc1	inconclusive: 15.8 µM [inhibitor, full curve, poor fit]	
CN(C)c1ccc(C=C2C(=O)NC(=S)NC2=O)cc1	inactive	
